{
  "source": "patent US5688936A",
  "about": "“Vesicle membrane transport proteins” (priority 1993, dated 1997)",
  "key": {"wild-type CHO cells": {"system": "wild-type CHO cells", "experiment": "Oxygen consumption, wild-type CHO cells", "format": "cell-based, Chinese hamster", "conditions": "500 μM, as early as 12 hours after exposure"}, "[1]": {"system": "MPP^+ -resistant CHO cells", "experiment": "Oxygen consumption, MPP+-resistant CHO cells", "format": "cell-based, Chinese hamster", "conditions": "resistant transfected cells"}, "respiratory complex I": {"system": "respiratory complex I", "conditions": "cited from earlier work"}, "CHO cells": {"system": "CHO cells", "experiment": "Uptake of [3H]-MPP+ by wild-type and resistant CHO cells", "format": "cell-based, Chinese hamster", "conditions": "25 nM, one to 48 hours, 37° C."}, "[2]": {"target": "T1, chromaffin granule amine transport protein (Rattus norvegicus, UniProt Q01818)", "T1 sequence (Q01818 1-521)": "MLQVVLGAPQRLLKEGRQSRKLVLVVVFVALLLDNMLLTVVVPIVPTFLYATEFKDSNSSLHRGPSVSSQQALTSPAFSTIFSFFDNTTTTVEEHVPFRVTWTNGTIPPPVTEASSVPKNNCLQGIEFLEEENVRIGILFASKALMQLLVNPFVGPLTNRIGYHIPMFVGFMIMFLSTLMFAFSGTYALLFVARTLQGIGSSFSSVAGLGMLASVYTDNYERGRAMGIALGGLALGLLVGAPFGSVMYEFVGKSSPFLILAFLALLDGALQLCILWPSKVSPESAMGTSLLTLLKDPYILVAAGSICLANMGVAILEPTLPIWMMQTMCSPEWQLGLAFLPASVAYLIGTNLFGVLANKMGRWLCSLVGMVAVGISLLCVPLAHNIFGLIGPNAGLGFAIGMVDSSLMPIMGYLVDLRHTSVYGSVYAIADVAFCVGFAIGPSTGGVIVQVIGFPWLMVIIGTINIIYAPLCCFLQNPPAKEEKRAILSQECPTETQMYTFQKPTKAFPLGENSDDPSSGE", "format": "cell-based", "set-up": "key to the marks not given beside the values", "conditions": "agent 10 mM; untreated control ++++; 12 hour dopamine loading", "method": "Uptake and cellular compartmentalization of loaded dopamine were performed by growing cells on poly-lysine-coated glass coverslips. […] The cells were then washed three times in 0.1M sodium phosphate, pH 7.4, and incubated at 4° C. in 2% glyoxylic acid/0.5 mg% MgCl2, pH 4.9-5.0 for three minutes as described by de la Torre, J. Neurosci. Meth. 3:1-5 (1980). Briefly, excess solution is wiped off the bottom and edges of the slide using absorbent paper, taking care not to touch the section. The coverslips were then drained thoroughly, dried in air at 45° C. heated to 80° C. for five minutes, inverted over mineral oil on glass slides and examined under fluorescence using the appropriate filters as described by Knigge et al., Brain Res. 120:393-405 (1977). Briefly, the preparations were infiltrated with warm immersion oil and examined in a Leitz MPV2 microspectrofluorometer equipped with Schoffel excitation and emission grating monochromators, photomultipliers, and ratio computing circuitry. Cells were scanned with either monochromatic light (370 nm) or narrow band excitation (S405, BG3) light for the purpose of identifying fluorescence within cells. […]\nDopamine-loaded fluorescence was carried out as described in Example 1. […] Glyoxylic-acid-induced fluorescence was used to determine the intracellular distribution as described above in Example 1. […]"}},
  "note": "For at least one compound, name, drawing or mass did not settle the structure.",
  "data": [
    {"smiles": "C[n+]1ccc(-c2ccccc2)cc1", "note": "[MPP^+, 1-methyl-4-phenylpyridinium]", "values": [
      {"measurement": "oxygen consumption", "setting": "wild-type CHO cells", "result": "dramatically inhibits oxygen consumption"},
      {"measurement": "oxygen consumption", "setting": "[1]", "result": "does not detectably affect oxygen consumption"},
      {"measurement": "inhibition of respiratory complex I", "setting": "respiratory complex I", "result": "inhibits respiration at the level of complex I"},
      {"measurement": "uptake of [3H]-MPP+", "setting": "CHO cells", "result": "no difference between wild-type and resistant cells"}
    ]},
    {"smiles": "Cl.N", "note": "[NH4 Cl, ammonium chloride]", "values": [
      {"measurement": "Dopamine Fluorescence (mpp^res CHO)", "setting": "[2]", "result": "++"}
    ]}
  ]
}
